The results in this text go back to PMC5780470, “Copper(I)-binding properties of de-coppering drugs for the treatment of Wilson disease. α-Lipoic acid as a potential anti-copper agent” (Scientific Reports, 2018).

The subject of the data set is Cox17 (Cu1Cox17, apo-Cox17_3S-S). The data set can be described thus: ESI-MS demetallation of Cu1Cox17, hyperbolic fit. The format is binding. The conditions noted are these: C50 for Cu(I) extraction from 1 uM Cu1Cox17, reference chelator; 20 mM ammonium acetate, pH 7.3, 25 °C.

`OC(CS)C(O)CS` (stereo not shown) [DTT, dithiotreitol, reference compound] gave an IC50 of 3.1 ± 0.26 mM.
